# Measured values as given in paper PMC11554567.
# Protein sequences, listed by entry. Tags and fused reporters are not part of them.
# UniProt Q9UH17: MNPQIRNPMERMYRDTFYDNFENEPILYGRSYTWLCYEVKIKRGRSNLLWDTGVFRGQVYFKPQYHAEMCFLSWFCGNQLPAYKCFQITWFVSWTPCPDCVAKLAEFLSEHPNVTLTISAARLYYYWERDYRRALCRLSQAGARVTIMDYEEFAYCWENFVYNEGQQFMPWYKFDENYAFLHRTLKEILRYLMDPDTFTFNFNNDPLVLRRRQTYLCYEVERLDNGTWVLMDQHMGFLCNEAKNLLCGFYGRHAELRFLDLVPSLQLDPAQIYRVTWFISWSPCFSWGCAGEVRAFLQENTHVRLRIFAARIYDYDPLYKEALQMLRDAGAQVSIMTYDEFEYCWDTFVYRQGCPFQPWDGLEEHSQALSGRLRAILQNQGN
# UniProt P35637: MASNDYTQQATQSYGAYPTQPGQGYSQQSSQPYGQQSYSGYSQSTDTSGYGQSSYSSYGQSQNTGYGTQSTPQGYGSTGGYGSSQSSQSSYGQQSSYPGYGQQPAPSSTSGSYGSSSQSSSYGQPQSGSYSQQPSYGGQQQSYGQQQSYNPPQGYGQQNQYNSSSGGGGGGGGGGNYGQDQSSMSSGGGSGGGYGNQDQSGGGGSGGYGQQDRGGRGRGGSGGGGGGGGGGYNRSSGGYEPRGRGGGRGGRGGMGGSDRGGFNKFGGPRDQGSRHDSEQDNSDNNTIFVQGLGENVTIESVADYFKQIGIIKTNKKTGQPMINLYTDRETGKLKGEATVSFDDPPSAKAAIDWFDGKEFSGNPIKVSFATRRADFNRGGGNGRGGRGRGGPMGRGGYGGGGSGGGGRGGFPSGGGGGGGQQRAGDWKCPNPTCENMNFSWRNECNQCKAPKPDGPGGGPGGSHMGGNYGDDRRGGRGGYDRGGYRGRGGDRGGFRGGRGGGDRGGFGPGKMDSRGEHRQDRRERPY
# Results are given in words; binding and its absence hold for the method and conditions named. Binding seen in cells or lysates may run through a third protein. Some entries that bind do so weakly or less than the wild type.
# Target: APOBEC3B (human) (UniProt Q9UH17)
# Assay: co-IP; co-immunoprecipitation of A3B in T-47D cells; association persisted after removal of nucleic acids by benzonase treatment
row,binding,Molecule
1,binds,FUS (from UniProt P35637 1-526)
2,binds,"NONO (protein, UniProt Q15233 1-471) MQSNKTFNLEKQNHTPRKHHQHHHQQQHHQQQQQQPPPPPIPANGQQASSQNEGLTIDLKNFRKPGEKTFTQRSRLFVGNLPPDITEEEMRKLFEKYGKAGEVFIHKDKGFGFIRLETRTLAEIAKVELDNMPLRGKQLRVRFACHSASLTVRNLPQYVSNELLEEAFSVFGQVERAVVIVDDRGRPSGKGIVEFSGKPAARKALDRCSEGSFLLTTFPRPVTVEPMDQLDDEEGLPEKLVIKNQQFHKEREQPPRFAQPGSFEYEYAMRWKALIEMEKQQQDQVDRNIKEAREKLEMEMEAARHEHQVMLMRQDLMRRQEELRRMEELHNQEVQKRKQLELRQEEERRRREEEMRRQQEEMMRRQQEGFKGTFPDAREQEIRMGQMAMGGAMGINNRGAMPPAPVPAGTPAPPGPATMMPDGTLGLTPPTTERFGQAATMEGIGAIGGTPPAFNRAAPGAEFAPNKRRRY"
